Measured values from the supplement of paper PMC5949888.
Most values lie at the floor of the assay. Slopes are relative: functional sequences can read slightly below zero.

The substances below were run on Saccharomyces cerevisiae PS128 hsf1 delta, HSF1(1-493) fusion (assay: growth estimate (transactivation domain function in HSF1 fusion, heat-shock survival) (a.u. (slope of normalised read count over time)); higher = stronger growth at 37°C, i.e. more transactivation activity). Conditions: library: random library.

| Substance | growth estimate |
| --- | --- |
| WLGSPVLGPRDEQRSCPYEV | -0.173 |
| ACSTGGGRLRAAWQRGVFNL | < -0.25 |
| VDLMCCVYF | < -0.25 |
| GPVGEARP | < -0.25 |
| TSNGAMRLFESPLTCLVARL | < -0.25 |
| ESSVRNGCVHADLLSRPRHL | < -0.25 |
| CNP | < -0.25 |
| AAVTVL | < -0.25 |
| REGERRSIEPG | < -0.25 |
| CQLSG | < -0.25 |
| HEAQTAIRAKDPGRLTWPNR | < -0.25 |
| VSVRMSYRLILGL | < -0.25 |
| FDTTDRASDHLPLLIKQDG | < -0.25 |
| NDLALLSSKRYSRQENILVN | < -0.25 |
| GGGCWWWTFGALWSYAEISD | < -0.25 |
| SIKCN | < -0.25 |
| LRSRAICARR | < -0.25 |
| SGGVRRQDILDK | < -0.25 |
| WANLFSQPRRNRDRRLV | < -0.25 |
| GAGKSFVRPALRCASDWSTG | < -0.25 |
| RVTPVPSITFIRFG | < -0.25 |
| ISHRTRFVCSL | < -0.25 |
| WSDSRALGVGRVGNEILTQG | -0.246 |
| HLDPSEVLDAGGGWFNPAGW | < -0.25 |
| IRPLCNRCAERIRW | < -0.25 |

| Substance | growth estimate |
| --- | --- |
| METGNFVLGWFCARNARIAG | < -0.25 |
| GGRTRGTTGLLWPDGPEVGV | < -0.25 |
| FQPSRRTRSGE | < -0.25 |
| THRTTYWESSIHRLIDGLIA | < -0.25 |
| KYVGYPRIAFVGRRTSLTRI | < -0.25 |
| DTPGFSGAHHR | < -0.25 |
| CRLKLVREVLGPRQFVFTLS | < -0.25 |
| LLKGEAEIRGSCLNRTLVHQ | < -0.25 |
| VGE | < -0.25 |
| MLRLLKSFARAPRADNIFLQ | < -0.25 |
| DPQKAVTAGACSFRGGSARA | < -0.25 |
| SPGTLSDIL | < -0.25 |
| VSKITSRISLNINPK | < -0.25 |
| REVHSV | -0.203 |
| STQ | < -0.25 |
| AVITRVKGSG | < -0.25 |
| LVDAVASNVFSA | < -0.25 |
| AVVLMGNCITEWNSVEKALP | < -0.25 |
| LVDFRQARWAQYDASWPLWA | -0.2 |
| GMIMGSTLLKHVRLLYGLRD | -0.208 |
| VQLAGEHSHVCCGG | < -0.25 |
| ESVYLLAVSGFTDEEKSFIA | -0.243 |
| HEHQ | < -0.25 |
| WLARLTEPGTEYARSNTPCL | -0.0581 |
| ITRPRSYCSHQGAHEQTLTP | < -0.25 |

3 entries picked at random from the list so far, as already listed:

| Substance | growth estimate |
| --- | --- |
| VQLAGEHSHVCCGG | < -0.25 |
| MLRLLKSFARAPRADNIFLQ | < -0.25 |
| ACSTGGGRLRAAWQRGVFNL | < -0.25 |

The listing continues:

| Substance | growth estimate |
| --- | --- |
| ILIASAVKFIRGLTYFATRR | < -0.25 |
| PTHSA | < -0.25 |
| ERRR | < -0.25 |
| RKVWSTHGEDAAIRPGGYAH | < -0.25 |
| KFTSYDPYSRQ | < -0.25 |
| HVAEELRVIFGRR | < -0.25 |
| CKLFHACQLLVKNGSGPAPN | < -0.25 |
| GQGGTRQDGFAYVWEQWKLR | < -0.25 |
| LPSSVLATLGAQLATP | < -0.25 |
| AQHN | -0.0005 |
| KSGSDSLWGMVTVASVSVWP | < -0.25 |
| EIH | -0.25 |
| LVTTFAQVLKRGFLHSSLLL | < -0.25 |
| RDGIGSQL | < -0.25 |
| YLEYSLLQREFPRR | < -0.25 |
| HFGQVA | < -0.25 |
| TERSNRRHPPVEEGGLILVV | < -0.25 |
| LGSTWF | < -0.25 |
| HISRSCICRWGQIKCRWGVY | < -0.25 |
| PLGLGVRGSRSSRKLTR | < -0.25 |
| RTSDR | < -0.25 |
| TRARRVESDWLEPASTTPLR | < -0.25 |
| HQALRTVVTQA | < -0.25 |
| PRRVLKRMDPQQVWASLRGN | < -0.25 |
| PVY | < -0.25 |

| Substance | growth estimate |
| --- | --- |
| SSARKVVTVLSKTVEIECVK | < -0.25 |
| KVLR | < -0.25 |
| IVK | < -0.25 |
| GLPH | < -0.25 |
| GCASMTELRVQWRGGSTLAD | < -0.25 |
| TESEM | < -0.25 |
| SDPVVASPKARWLRHVTLKP | -0.243 |
| RYVMDVGHFRLKSRRTH | < -0.25 |
| TSGICAREPRAL | < -0.25 |
| GSRGCTQPGSACMVRGC | < -0.25 |
| HQAGWLITDFVNLCPRVDYG | < -0.25 |
| PGEVQSRMS | < -0.25 |
| GSEPEWNSGYLVVGEGRVPG | < -0.25 |
| PSSVLAGSKSR | < -0.25 |
| YLGFIDPLAQANLKFPFATL | < -0.25 |
| NWNKGPYLHVM | -0.243 |
| ATRHPSTLHWDGLSCTQGWA | < -0.25 |
| PLDSTSFGHIFWSWGSLLGT | < -0.25 |
| RSGGPRNQRTRVERYKVECT | < -0.25 |
| LFKDYTSIQLMDGGNGTCGV | < -0.25 |
| MWES | < -0.25 |
| AVDASNSEAGAYLSRQCRNV | < -0.25 |
| AYGNDHLAETDMLGPQAGIA | < -0.25 |
| RDVMFFDKWSPCLCCFCAPP | < -0.25 |
| FVGQARMDDRTGLCAL | < -0.25 |

| Substance | growth estimate |
| --- | --- |
| GVPLSPLFWPEMRHVHRTRK | < -0.25 |
| ETFKLGTYIFRGLPIASPKM | < -0.25 |
| FAISVAGA | < -0.25 |
| SVAG | < -0.25 |
| PPGV | < -0.25 |
| KTYG | < -0.25 |
| PCIPDKFERDVNTSRASE | < -0.25 |
| FVKVPDC | < -0.25 |
| CRPIQTHVSVNLVSVALNVR | < -0.25 |
| PKSLVSGGARRALSR | < -0.25 |
| CRLQRLFRVGFSLVR | < -0.25 |
| GASDSRERGV | < -0.25 |
| REAPGPTI | < -0.25 |
| ISVE | < -0.25 |
| SPPLLAKVLAWFWVANRRE | < -0.25 |
| AEKDHLPLLSGARRRGFN | < -0.25 |
| NKARHDYHRLSMHVQGKHHY | < -0.25 |
| NAGGEFYVDLASTPLRSNHE | < -0.25 |
| WRKIYFDLMEGMFGYIFPGK | < -0.25 |
| GGKY | < -0.25 |
| QWNDSGERVRPAGR | < -0.25 |
| RKLGYQFEPMSF | < -0.25 |
| VKL | < -0.25 |
| PDGAI | < -0.25 |
| PWGQLTLTGCCSPVVGAGEW | < -0.25 |

| Substance | growth estimate |
| --- | --- |
| TVEGRTVIGDMSIQWC | < -0.25 |
| SRRGDGPCCDVGTSERARLR | < -0.25 |
| LISVRHSRLG | < -0.25 |
| DQTRGLKSFILGTRIGLGYP | < -0.25 |
| LPSVTHGEPIRPVHGTPYPA | < -0.25 |
| GKRDTIVKHSTQYPAVGVKA | < -0.25 |
| FALSPITGLGMSGKEDTCCV | < -0.25 |
| ILGRWPDQKLSG | -0.243 |
| IQTSRAHPYGNGLYDMWARY | < -0.25 |
| DSIFYYRVHSKVAAVRLTQR | < -0.25 |
| PVIMPRLRNPPLFSARLI | < -0.25 |
| WSNFSVVKKGGRAESADVDP | < -0.25 |
| RERSF | < -0.25 |
| LEARNSHACDGPSINYHQIH | < -0.253 |
| SVPTG | < -0.25 |
| VKRDASVKSTDLGSDGYV | < -0.25 |
| ICWEYPDGNRWGRHVPLVCH | < -0.25 |
| IALVTVDFYCHVFITI | < -0.25 |
| AVARIKNQAPYCPSTSEHGT | < -0.25 |
| IRVGQRPQTGSADAANWQCS | < -0.25 |
| CDQTSLPPGRRRNIAWAPDT | < -0.25 |
| AGTVRRVRVREPCIKVHQRQ | < -0.25 |
| ARGTECARSENGPLLTSTPL | < -0.25 |
| AFPNAHRDHVDEPRCFKRQA | < -0.25 |
| RSNGP | < -0.25 |

| Substance | growth estimate |
| --- | --- |
| ILTI | < -0.25 |
| GNLLGLREWTVYVGRFERPI | < -0.25 |
| LWSGCCRCTIGGAQLSIYVH | < -0.25 |
| YKTVIGKVKWLSFFKANVIQ | < -0.25 |
| CLSFRMMSSIIYGGSHAHSH | < -0.25 |
| TIESNRFYCYEVKCDAATLR | < -0.25 |
| KCKVPPEPSNEIFHALRSRQ | < -0.25 |
| RVRYVVGKFTLLSRSSRVYA | < -0.25 |
| VQYLGLRVDDVEL | < -0.25 |
| SLRGDQADGINFGETV | -0.219 |
| CSTIPVYFESACLFTGCRKS | < -0.25 |
| VRRAKP | < -0.25 |
| QWVANGHLLVPDYKYRGRSR | < -0.25 |
| YDRLRIVLGFYGYTNKHVGQ | < -0.25 |
| LWVVPETQ | < -0.25 |
| PRCFTVKIECPRRLILGPS | < -0.25 |
| GSVAWCRPGTTSGLRLPGRD | < -0.25 |
| SVKGVS | < -0.25 |
| SGLTKSPNSRKGVKDRER | < -0.25 |
| LCMIAAA | < -0.25 |
| TGFTTHGTTRCAGSMPGITA | < -0.25 |
| SDIIA | < -0.25 |
| ATDRGALPG | < -0.25 |
| SARGSNDGTRACRSRPRTAS | < -0.25 |
| LRGNWNCRECQRSDRPIRLS | < -0.25 |

| Substance | growth estimate |
| --- | --- |
| DGFVLVTNRLDSLVLSDL | < -0.25 |
| AIGIRPQRRLGYPVLRLHHC | < -0.25 |
| DVIETTRVRRVVGPREGKGF | < -0.25 |
| PWQIEGPMCTRVWWSNRTLT | < -0.25 |
| SEDQAPSNISLVCGESRRTG | < -0.25 |
| DLRAKGVNVRRAILDHVTRT | < -0.25 |
| STESPIIFLRSPSGREIVTN | < -0.25 |
| LCIDQ | < -0.25 |
| QKTVRSCGSTQNGDTLQPNT | < -0.25 |
| GWLRQC | < -0.25 |
| RSGLWARPWIYLQDMELSPR | < -0.25 |
| RVESPKCTMDIFSMGLCGQI | < -0.25 |
| CEGNISFCLSLD | < -0.25 |
| LPKRISPFVAHIRRDTHETG | < -0.25 |
| GVKELWSSYQCRHRIPISYC | < -0.25 |
| TTWC | < -0.25 |
| VAVNAVPVCIGHLFSVFALL | < -0.25 |
| NLLV | < -0.25 |
| AMERAARPLFASSTAIGESP | < -0.25 |
| VPSAADRCR | < -0.25 |
| VGAVTRDVLWFCSNRI | < -0.25 |
| GFRRNSLGSSPRVI | < -0.25 |

In a second layout: results already given
Substance	growth estimate
ILGRWPDQKLSG	-0.243
IQTSRAHPYGNGLYDMWARY	< -0.25
DSIFYYRVHSKVAAVRLTQR	< -0.25
PVIMPRLRNPPLFSARLI	< -0.25
WSNFSVVKKGGRAESADVDP	< -0.25
RERSF	< -0.25
LEARNSHACDGPSINYHQIH	< -0.253
SVPTG	< -0.25
VKRDASVKSTDLGSDGYV	< -0.25
ICWEYPDGNRWGRHVPLVCH	< -0.25
IALVTVDFYCHVFITI	< -0.25
AVARIKNQAPYCPSTSEHGT	< -0.25
IRVGQRPQTGSADAANWQCS	< -0.25
CDQTSLPPGRRRNIAWAPDT	< -0.25
AGTVRRVRVREPCIKVHQRQ	< -0.25
ARGTECARSENGPLLTSTPL	< -0.25
AFPNAHRDHVDEPRCFKRQA	< -0.25
RSNGP	< -0.25
ILTI	< -0.25
GNLLGLREWTVYVGRFERPI	< -0.25
LWSGCCRCTIGGAQLSIYVH	< -0.25
YKTVIGKVKWLSFFKANVIQ	< -0.25
CLSFRMMSSIIYGGSHAHSH	< -0.25
TIESNRFYCYEVKCDAATLR	< -0.25
KCKVPPEPSNEIFHALRSRQ	< -0.25
RVRYVVGKFTLLSRSSRVYA	< -0.25
VQYLGLRVDDVEL	< -0.25
SLRGDQADGINFGETV	-0.219
CSTIPVYFESACLFTGCRKS	< -0.25
VRRAKP	< -0.25
QWVANGHLLVPDYKYRGRSR	< -0.25
YDRLRIVLGFYGYTNKHVGQ	< -0.25
LWVVPETQ	< -0.25
PRCFTVKIECPRRLILGPS	< -0.25
GSVAWCRPGTTSGLRLPGRD	< -0.25
SVKGVS	< -0.25
SGLTKSPNSRKGVKDRER	< -0.25
LCMIAAA	< -0.25
TGFTTHGTTRCAGSMPGITA	< -0.25
SDIIA	< -0.25
ATDRGALPG	< -0.25
SARGSNDGTRACRSRPRTAS	< -0.25
LRGNWNCRECQRSDRPIRLS	< -0.25
DGFVLVTNRLDSLVLSDL	< -0.25
AIGIRPQRRLGYPVLRLHHC	< -0.25
DVIETTRVRRVVGPREGKGF	< -0.25
PWQIEGPMCTRVWWSNRTLT	< -0.25
SEDQAPSNISLVCGESRRTG	< -0.25
DLRAKGVNVRRAILDHVTRT	< -0.25
STESPIIFLRSPSGREIVTN	< -0.25
LCIDQ	< -0.25
QKTVRSCGSTQNGDTLQPNT	< -0.25
GWLRQC	< -0.25
RSGLWARPWIYLQDMELSPR	< -0.25
RVESPKCTMDIFSMGLCGQI	< -0.25
CEGNISFCLSLD	< -0.25
LPKRISPFVAHIRRDTHETG	< -0.25
GVKELWSSYQCRHRIPISYC	< -0.25
TTWC	< -0.25
VAVNAVPVCIGHLFSVFALL	< -0.25
NLLV	< -0.25
AMERAARPLFASSTAIGESP	< -0.25
